According to the supplement of paper PMC4604168 (melanoma cell lines):
This is one part of the list. Many values rest on one well or one pass, so single values are uncertain.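 Cells were imaged in 1,536-well plates, and nuclei stained with an antibody against cleaved PARP were counted against all DNA-stained nuclei to give the apoptosis fraction. Screening doses were chosen to leave most cells alive, and resting and induced cleaved-PARP levels differ strongly between cell lines.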

Assays:
Assay in all cases: cleaved PARP positive nuclei fraction relative to DMSO control; melanoma cells; higher = more apoptosis
Conditions in all cases: library dose: low library concentration; 72 h
MZ2-MEL = test system: MZ2-MEL
MeWo = test system: MeWo
RPMI7951 = test system: RPMI7951
RVH-421 = test system: RVH-421
SkMel28 = test system: SkMel28
SkMel30 = test system: SkMel30
SkMel5 = test system: SkMel5
UACC257 = test system: UACC257
UACC62 = test system: UACC62

Structure (SMILES)	cleaved PARP positive nuclei fraction (MZ2-MEL)	cleaved PARP positive nuclei fraction (MeWo)	cleaved PARP positive nuclei fraction (RPMI7951)	cleaved PARP positive nuclei fraction (RVH-421)	cleaved PARP positive nuclei fraction (SkMel28)	cleaved PARP positive nuclei fraction (SkMel30)	cleaved PARP positive nuclei fraction (SkMel5)	cleaved PARP positive nuclei fraction (UACC257)	cleaved PARP positive nuclei fraction (UACC62)
O=S(=O)(c1ccccc1)N(CC(F)(F)F)c1ccc(C(O)(C(F)(F)F)C(F)(F)F)cc1 + COc1cc(N2CCC(N3CCN(C)CC3)CC2)ccc1Nc1ncc(Cl)c(Nc2ccccc2S(=O)(=O)C(C)C)n1 [NVP-TAE684] (first compound 1.4 µM, partner dose 0.08 µM)	86.6%	55.9%	77.3%	65.3%	48.8%	157%	239%	79%	45.3%
O=C(O)c1ccc(-c2c[nH]c3ncc(-c4ccccc4)cc23)cc1C1CCCC1 + CCc1ccc(CCOc2ccc(CC3SC(=O)NC3=O)cc2)nc1 [pioglitazone] (first compound 0.16 µM, partner dose 2 µM)	286%	177%	89.4%	41.8%	147%	55%	70.2%	13.7%	45%
Oc1cc(-c2nc(-c3ccccc3)[nH]c2-c2ccncc2)ccc1Cl + c1cc(-c2cnn3cc(-c4ccc(OCCN5CCCCC5)cc4)cnc23)ccn1 [Dorsomorphin] (first compound 0.2 µM, partner dose 0.4 µM)	81.8%	114%	41.3%	151%	131%	112%	70.3%	252%	276%
COc1cc2ncnc(Nc3ccc(Oc4ccccc4)cc3)c2cc1OC + Cc1cc([N+](=O)[O-])ccc1NS(=O)(=O)c1cc(Cl)ccc1Cl [FH535] (first compound 2 µM, partner dose 1 µM)	127%	58.1%	75.9%	103%	162%	59.2%	30.5%	200%	80.9%
COC(=O)c1sccc1S(=O)(=O)Nc1ccc(Nc2ccccc2)cc1OC + Cc1cc([N+](=O)[O-])ccc1NS(=O)(=O)c1cc(Cl)ccc1Cl [FH535] (first compound 1 µM, partner dose 1 µM)	40.1%	97.9%	83.3%	90.8%	90.1%	21.6%	135%	33.3%	499%
O=S(=O)(c1ccccc1)N(CC(F)(F)F)c1ccc(C(O)(C(F)(F)F)C(F)(F)F)cc1 + O=C(O)C(=O)Nc1sc2c(c1C(=O)O)CCNC2 [TCS401] (first compound 1.4 µM, partner dose 1.66667 µM)	110%	60.4%	34.7%	55.6%	135%	14.4%	70.6%	62.2%	155%
